The whole screen tested about 300,000 compounds, of which about 5,400 (1.8%) were called active. The shares of active, inactive and inconclusive entries below differ from those in the screen. Calls come from the whole dose curve; tested in HEK293 cells. Potencies beside an inconclusive call are fits to weak or partial responses and may not hold up.
assay: qHTS for inhibitors of binding or entry into cells for Marburg Virus; details: Marburg virus pseudotyped entry inhibition, cell reporter; activity change, negative = inhibition: at 37.8 µM (top of the series) unless noted
% is set by controls: 0 for no effect and ±100 for the full control effect; potency is the fitted concentration of half-maximal effect.

Structure (SMILES)	Potency	activity change, negative = inhibition
CCN(Cc1ccccc1)S(=O)(=O)c1cc(C(=O)O)ccc1OC	inconclusive: 3.98 µM [inhibitor, partial curve, poor fit]	
CCn1c(O)c(C=NCCN2CCOCC2)sc1=S		inactive: 12.8%
CN1CCN(c2ncnc3c2c(-c2ccccc2)cn3-c2ccc(F)cc2)CC1	inconclusive: 11.2 µM [inhibitor, partial curve, poor fit]	
COc1cc(NC(=O)COc2ccccc2Cl)ccc1NC(=O)c1cccs1	inconclusive: 35.5 µM [inhibitor, single point]	
Cc1ccc(-c2cc3nc(-c4ccccc4)cc(N4CCOCC4)n3n2)cc1	inconclusive: 15.8 µM [inhibitor, single point]	
Cc1oc2ccc(NS(=O)(=O)c3ccc(C(C)(C)C)cc3)cc2c1C(=O)Nc1ccccc1	inconclusive: 15.8 µM [inhibitor, partial curve, poor fit]	
COc1ccc(NC(=O)CC2Oc3ccccc3NC2=O)c(OC)c1 (stereo not drawn)	inconclusive: 5.62 µM [activator, single point]	
O=C(O)CCCN1C(=O)/C(=C\c2ccco2)SC1=S	inconclusive: 7.94 µM [inhibitor, partial curve, poor fit]	
CCc1nc2oc3ccc(C)cc3c(=O)c2cc1C(=O)OC		inactive: 19.3%
O=C(Cc1ccc(S(=O)(=O)N2CCCC2)s1)N1CCN(c2ccc(F)cc2)CC1	inconclusive: 22.4 µM [inhibitor, single point]	
COC(=O)N/N=C/c1ccc(-c2ccc(C)c(Cl)c2)o1	inconclusive: 1 µM [inhibitor, partial curve, poor fit]	
CC(=O)c1ccc(N2CCN(S(=O)(=O)c3ccc4c(c3)NC(=O)CO4)CC2)cc1		inactive: -19.8% [at 46.1 µM]
COc1ccc2c(c1)CCCC21NC(=O)N(CC(=O)NC(=O)NCc2ccccc2)C1=O (stereo not drawn)	inconclusive: 35.5 µM [inhibitor, single point]	
Cc1cccc(NC(=O)CC2SC(=O)N(c3ccccc3)C2=O)c1 (stereo not drawn)		inactive: 5.95%
CCCN(CC(=O)Nc1ccccc1OC)C(=O)Cn1c(=O)oc2ccccc21		inactive: 2.43% [at 46.1 µM]
CCOc1ccc(NC(=O)CN(C)C(=O)c2cn(-c3ccc(C)cc3)nc2-c2cccc(OC)c2)cc1OCC	active: 11.2 µM	
C[C@]12CC[C@H](O)CC1=CCC1C2CC[C@@]2(C)C1CC[C@@H]2NC(=O)CCC(=O)O (stereo partly drawn)		inactive: 3.4%
Cc1cc(C(=O)CSc2ccc3c(c2)OCCO3)c(C)n1C1CC1	inconclusive: 6.51 µM [activator, single point]	
COc1ccc(/C=C/C(=O)N2CCCc3ccccc32)c(OC)c1	inconclusive: 35.5 µM [inhibitor, single point]	
Cc1cccc(CSc2nc3c(cc2C#N)CN(C)CC3)c1		inactive: 5.31%
Cc1cc(C)nc(SCc2c(F)cccc2Cl)n1		inactive: 2.02%
Cc1ccc(NC(=O)C2CC(=O)n3ncnc3N2)cc1C (stereo not drawn)	inconclusive: 0.794 µM [inhibitor, single point]	
O=[N+]([O-])c1ccc(Sc2nccn2Cc2ccccc2)c([N+](=O)[O-])c1	inconclusive: 35.5 µM [inhibitor, single point]	

Structure (SMILES)	Potency	activity change, negative = inhibition
Cc1ccc(C)c(NC(=S)NC(NC(=O)Cc2cccc3ccccc23)C(Cl)(Cl)Cl)c1 (stereo not drawn)	active: 12.6 µM	
CCC(=Nc1cccc(C(F)(F)F)c1)c1c(O)n(C)c(=O)n(C)c1=O		inactive: 1.04% [at 46.1 µM]
Oc1[nH]c2c(Cl)cc(Cl)cc2c1N=NC(=S)NCC1CCCO1 (stereo not drawn)	inconclusive: 0.316 µM [inhibitor, partial curve, poor fit]	
Cc1ccc(-n2nc3c(=O)n(CC(=O)NCCc4ccccc4C)nc(C)c3c2C)cc1	inconclusive: 6.31 µM [inhibitor, full curve, poor fit]	
Cc1ccc(C)c(CNC(=O)Nc2ccccc2)c1		inactive: 3.81% [at 46.1 µM]
Cc1ccc(-c2nn(-c3ccccc3)cc2/C=C/C(=O)OCC(=O)NC2CC2)o1	inconclusive: 1.78 µM [inhibitor, partial curve, poor fit]	
CCC(=O)N1CCc2cc(-c3csc(NC(=O)c4ccco4)n3)ccc21		inactive: -7.22%
Cc1onc(-c2ccccc2)c1C(=O)Nc1cccc(S(=O)(=O)N2CCCCC2)c1	inconclusive: 35.5 µM [inhibitor, single point]	
Cc1cc(C(=O)c2ccc(Cl)cc2)c(NC(=O)CCl)s1	inconclusive: 10 µM [inhibitor, partial curve, poor fit]	
COc1ccc(NS(=O)(=O)c2cccc(C(=O)OCC(=O)N3CCN(c4ccc(OC)cc4)CC3)c2)cc1	inconclusive: 15.8 µM [inhibitor, single point]	
CCCSc1nc(O)c(C(c2ccc(OC)c(O)c2)c2c(O)nc(SCCC)n(C)c2=O)c(=O)n1C		inactive: -6.19%
O=C1CN(C(=O)/C=C/c2cccc(Cl)c2)c2ccccc2N1	inconclusive: 35.5 µM [inhibitor, single point]	
C=CCNC(=O)/C(C#N)=C/c1cc(Br)ccc1OC	inconclusive: 17.8 µM [inhibitor, single point]	
Cn1ncc(Br)c1C(=O)NC1C2CC3CC(C2)CC1C3 (stereo not drawn)	inconclusive: 7.08 µM [inhibitor, partial curve]	
CC(C)(C)NC(=O)c1ccc2nsnc2c1	inconclusive: 0.1 µM [activator, full curve, poor fit]	
Cc1ccc(OCc2nnc(SCc3nc4ccccc4[nH]3)n2Cc2ccco2)cc1	inconclusive: 10 µM [inhibitor, partial curve, poor fit]	
COc1cccc(CN(C)C(=O)C(CCSC)NS(=O)(=O)c2ccc3c(c2)OCCO3)c1OC (stereo not drawn)	inconclusive: 10 µM [inhibitor, partial curve, poor fit]	
O=C(NNC(=O)c1cccs1)c1ccc2ccccc2c1		inactive: 10.6% [at 46.1 µM]
C/C(=C\C(=O)c1ccc(Br)cc1)Nc1ccc(Cl)cc1	inconclusive: 10 µM [inhibitor, partial curve]	
NS(=O)(=O)c1ccc(N=Nc2c(O)ccc3ccccc23)cc1		inactive: -5.58%
CCCC(=O)Nc1sc(C(=O)Nc2cccc(N)c2)c(C)c1C(=O)OC	inconclusive: 25.1 µM [inhibitor, single point]	
COc1cccc(COCC(O)Cn2cnc3cc(C)c(C)cc32)c1 (stereo not drawn)		inactive: 4.04% [at 46.1 µM]
COc1cc(CC(=O)Nc2cccc(SC)c2)cc(OC)c1OC	inconclusive: 5.01 µM [inhibitor, full curve, poor fit]	

Among those listed so far, 2 contain an NH in an aromatic ring.
Structure (SMILES)	Potency	activity change, negative = inhibition
Oc1[nH]c2c(Cl)cc(Cl)cc2c1N=NC(=S)NCC1CCCO1 (stereo not drawn)	inconclusive: 0.316 µM [inhibitor, partial curve, poor fit]	
Cc1ccc(OCc2nnc(SCc3nc4ccccc4[nH]3)n2Cc2ccco2)cc1	inconclusive: 10 µM [inhibitor, partial curve, poor fit]	

Carrying on.

Structure (SMILES)	Potency	activity change, negative = inhibition
CCN(CC(=O)N1CCOCC1)S(=O)(=O)c1cc(Cl)ccc1Cl		inactive: 15.2%
COc1cccc(NC(=O)c2oc3ccccc3c2NC(=O)c2ccc(F)c(F)c2)c1		inactive: -0.303% [at 46.1 µM]
CCCCNc1nc2ccccc2n1CC(=O)Nc1c(C)cccc1CC	inconclusive: 31.6 µM [inhibitor, single point]	
COc1ccc(CN2CCN(Cc3ccc4ccccc4c3)CC2)cc1OC	inconclusive: 10 µM [inhibitor, partial curve, poor fit]	
Cc1ccc(C)c(NC(=O)c2ccc3c(c2)CCCN3S(C)(=O)=O)c1	inconclusive: 28.2 µM [activator, single point]	
COc1ccccc1N1CCN(C(=O)C2CC(=O)N(c3ccccc3)C2)CC1 (stereo not drawn)		inactive: 3.92% [at 46.1 µM]
COc1cc(OC)nc(Oc2ccccc2C=O)n1	inconclusive: 35.5 µM [inhibitor, partial curve, poor fit]	
Cc1ccc(Nc2nc(N)nc(COC(=O)c3ccc(Br)o3)n2)cc1	inconclusive: 35.5 µM [inhibitor, single point]	
COCCn1c(C)cc(C(=O)COC(=O)c2ccc(NC(=O)CC#N)cc2)c1C	inconclusive: 0.794 µM [activator, full curve, poor fit]	
Cc1ccc(-n2c(=O)c3sc4ccccc4c3n(C)c2=O)cc1F	inconclusive: 12.6 µM [inhibitor, single point]	
O=C(NC1CCCCC1)C(c1ccc2ncccc2c1)N(Cc1ccccc1)C(=O)c1ccc2c(c1)OCCO2 (stereo not drawn)	inconclusive: 29.1 µM [inhibitor, single point]	
NC(=O)Cn1nnc(-c2ccc(C(F)(F)F)cc2)n1		inactive: 12.8%
CC(NC(=O)COC(=O)CCC(=O)c1ccc(Cl)cc1)c1ccccc1 (stereo not drawn)	inconclusive: 17.8 µM [activator, partial curve, poor fit]	
COc1ccc(C(=O)Nc2cc(Cl)ccc2Cl)c(OC)n1		inactive: 12.7%
CC(=O)Nc1cc[n+](CC(=O)c2ccc(Cl)cc2)cc1	inconclusive: 3.98 µM [activator, single point]	
O=C1c2ccccc2C(=O)N1CN(C(=O)COc1ccccc1)c1ccc(F)cc1	inconclusive: 17.8 µM [activator, partial curve, poor fit]	
Cc1cc(C)cc(-n2c(C)c3c(C)nnc(C)c3c2C)c1	inconclusive: 0.708 µM [inhibitor, full curve, poor fit]	
COc1ccc(CNC2CCCc3ccccc32)c(OC)c1 (stereo not drawn)	inconclusive: 31.6 µM [inhibitor, partial curve, poor fit]	
Cc1nc(-c2ccc(S(=O)(=O)Oc3ccc(Cl)cc3Cl)s2)cs1	inconclusive: 35.5 µM [inhibitor, single point]	
CC(=O)CSc1ccc(-c2nc3cc(C)c(C)cc3[nH]2)cn1	inconclusive: 0.794 µM [inhibitor, full curve, poor fit]	
C=C(C(=O)c1ccccc1)C(C)C(=C)C(=O)c1ccccc1	active: 7.94 µM	
COc1cccc(NC(=O)[C@@H](NC(=O)N2CCn3c2nc2ccccc23)C(C)C)c1	inconclusive: 15.8 µM [inhibitor, single point]	

2 compounds drawn at random from those above, as already listed:
Structure (SMILES)	Potency	activity change, negative = inhibition
Cc1cc(C(=O)c2ccc(Cl)cc2)c(NC(=O)CCl)s1	inconclusive: 10 µM [inhibitor, partial curve, poor fit]	
Cc1cc(C)nc(SCc2c(F)cccc2Cl)n1		inactive: 2.02%
